Laboratory results: publication PMC4931343
These are yes or no findings as the source states them, for the method shown. Binding seen in cells or lysates may run through a third protein. Some binding calls cover weakened binding; strength is not graded here. For some of these results: Sequences can lack the tags named with a protein.

Protein sequences, listed by entry. Tags and fused reporters are not part of them. Lines headed by an entry give the natural chain unless they say otherwise; changes in a name come on top. Chains listed by the source or under a name are the forms on record and can include a tag or linker. Residues count along the entry.
UniProt Q9CR42: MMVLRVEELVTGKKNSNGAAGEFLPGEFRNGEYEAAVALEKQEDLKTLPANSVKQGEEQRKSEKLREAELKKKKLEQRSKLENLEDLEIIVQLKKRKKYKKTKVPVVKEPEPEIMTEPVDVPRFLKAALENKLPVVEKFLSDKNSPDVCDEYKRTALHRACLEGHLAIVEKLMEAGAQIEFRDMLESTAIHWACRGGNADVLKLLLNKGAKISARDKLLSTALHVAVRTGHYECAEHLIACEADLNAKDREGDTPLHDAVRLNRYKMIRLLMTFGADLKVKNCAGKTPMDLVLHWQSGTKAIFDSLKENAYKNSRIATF
UniProt Q9GZV1: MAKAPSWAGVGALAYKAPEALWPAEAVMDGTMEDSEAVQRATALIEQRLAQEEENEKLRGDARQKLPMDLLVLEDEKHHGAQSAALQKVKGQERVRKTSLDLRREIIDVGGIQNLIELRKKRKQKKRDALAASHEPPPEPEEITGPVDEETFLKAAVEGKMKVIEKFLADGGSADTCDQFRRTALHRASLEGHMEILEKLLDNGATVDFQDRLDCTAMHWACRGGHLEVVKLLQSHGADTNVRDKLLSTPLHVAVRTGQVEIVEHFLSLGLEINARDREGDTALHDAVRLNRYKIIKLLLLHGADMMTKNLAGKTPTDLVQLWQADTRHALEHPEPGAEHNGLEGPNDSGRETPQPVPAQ
CARP2 coiled-coil region (amino acids 1-146) tagged on the C-terminus with YFP C-terminal fragment (YC): residues 1-146 of Q9GZV1
UniProt Q15327: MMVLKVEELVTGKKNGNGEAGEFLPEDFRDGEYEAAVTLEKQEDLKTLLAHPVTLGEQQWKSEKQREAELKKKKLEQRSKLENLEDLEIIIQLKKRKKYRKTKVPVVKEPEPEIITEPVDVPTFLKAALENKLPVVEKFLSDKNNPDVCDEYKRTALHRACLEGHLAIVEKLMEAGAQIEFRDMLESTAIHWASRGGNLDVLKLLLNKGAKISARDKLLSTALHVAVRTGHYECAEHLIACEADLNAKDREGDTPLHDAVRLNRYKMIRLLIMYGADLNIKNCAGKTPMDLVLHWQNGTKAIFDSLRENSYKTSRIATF
UniProt Q9WV06: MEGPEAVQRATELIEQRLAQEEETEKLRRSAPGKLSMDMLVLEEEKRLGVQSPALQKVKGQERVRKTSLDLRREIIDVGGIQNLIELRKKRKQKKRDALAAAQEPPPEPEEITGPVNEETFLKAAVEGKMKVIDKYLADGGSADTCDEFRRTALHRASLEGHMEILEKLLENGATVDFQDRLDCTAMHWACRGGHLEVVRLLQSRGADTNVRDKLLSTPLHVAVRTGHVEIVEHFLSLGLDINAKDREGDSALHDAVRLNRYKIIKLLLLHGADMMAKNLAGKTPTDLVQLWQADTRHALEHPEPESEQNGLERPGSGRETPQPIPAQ

T1: CARP3 coiled-coil region (amino acids 1-109) tagged on the C-terminus with YFP C-terminal fragment (YC) (human) (UniProt Q86SG2)
T1 sequence: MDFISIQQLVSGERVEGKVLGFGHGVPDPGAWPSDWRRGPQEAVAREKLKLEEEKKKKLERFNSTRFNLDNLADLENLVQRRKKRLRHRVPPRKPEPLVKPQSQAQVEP


Experiments:
[1] = target: CARP1 (endogenous, mouse heart) (mouse (endogenous in heart)) (UniProt Q9CR42); test: co-IP; CARP1 antibodies (1 μg), protein G magnetic beads, soluble heart extracts of adult MLP knockout mice, 4 °C; immunoblot
[2] = target: CARP1 (endogenous, mouse heart) (mouse (endogenous in heart)) (UniProt Q9CR42); test: co-IP; CARP1 antibodies (1 μg), protein G magnetic beads, soluble heart extracts of adult WT mice, 4 °C; immunoblot
[3] = target: GST-CARP2 (human CARP2/Ankrd2) (human) (UniProt Q9GZV1); test: pull-down; recombinant CARP1 or CARP2 (GST fusion) incubated with extracts of MLP knockout mouse hearts; glutathione-sepharose 4B; immunoblot; only the target purified
[4] = target: GST-CARP1 (human CARP1/Ankrd1) (human) (UniProt Q15327); test: as above
[5] = target: GST-CARP2 (human CARP2/Ankrd2) (human) (UniProt Q9GZV1); test: pull-down; 2 μg GST-CARP1 or GST-CARP2 incubated at 4 °C with soluble extract (IP-buffer: 150 mM NaCl, Tris-HCl pH 8, 0.2% NP-40, 0.2% SDS) holding GFP-PLCβ1; glutathione-sepharose 4B; immunoblot; only the target purified
[6] = target: GST-CARP1 (human CARP1/Ankrd1) (human) (UniProt Q15327); test: as above
[7] = target: CARP2 coiled-coil region (amino acids 1-146) tagged on the C-terminus with YFP C-terminal fragment (YC) (human) (UniProt Q9GZV1); test: split reporter; split-YFP protein complementation in transfected cells; YN on PLCβ1 coiled coil, YC on CARP coiled coil; fluorescence microscopy
[8] = target: T1, CARP3 coiled-coil region (amino acids 1-109) tagged on the C-terminus with YFP C-terminal fragment (YC) (human); test: as above

binding [1] | binding [3] | binding [4] | Molecule | binding [2] | further results
binds |  |  | CARP2 (endogenous, mouse heart) (from UniProt Q9WV06 1-328) |  | 
binds | binds | binds | PKCα (endogenous, mouse heart) (from UniProt P20444 1-672) (enzyme) | no binding (condition: extracts of WT hearts) | 
 |  |  | GFP-PLCβ1 coiled-coil domains (human phospholipase C β1, amino acids 978-1138) (domain or fragment, UniProt Q9NQ66-1 978-1138) SEPSSPDHGSSTIEQDLAALDAEMTQKLIDLKDKQQQQLLNLRQEQYYSEKYQKREHIKLLIQKLTDVAEECQNNQLKKLKEICEKEKKELKKKMDKKRQEKITEAKSKDKSQMEEEKTEMIRSYIQEVVQYIKRLEEAQSKRQEKLVEKHKEIRQQILDE |  | binding [5]: binds; binding [6]: binds
 |  |  | YN-PLCβ1 coiled-coil region (amino acids 980-1140) (domain or fragment, UniProt Q9NQ66-1 980-1140) PSSPDHGSSTIEQDLAALDAEMTQKLIDLKDKQQQQLLNLRQEQYYSEKYQKREHIKLLIQKLTDVAEECQNNQLKKLKEICEKEKKELKKKMDKKRQEKITEAKSKDKSQMEEEKTEMIRSYIQEVVQYIKRLEEAQSKRQEKLVEKHKEIRQQILDEKP |  | binding [7]: binds; binding [8]: binds
binds | binds | binds | PLCβ1 (endogenous, mouse heart) (enzyme, UniProt Q9Z1B3 1-1216) MAGAQPGVHALQLKPVCVSDSLKKGTKFVKWDDDSTIVTPIILRTDPQGFFFYWTDQNKETELLDLSLVKDARCGKHAKAPKDPKLRELLDVGNIGHLEQRMITVVYGPDLVNISHLNLVAFQEEVAKEWTNEVFSLATNLLAQNMSRDAFLEKAYTKLKLQVTPEGRIPLKNIYRLFSADRKRVETALEACSLPSSRNDSIPQEDFTPDVYRVFLNNLCPRPEIDNIFSEFGAKSKPYLTVDQMMDFINLKQRDPRLNEILYPPLKQEQVQVLIEKYEPNSSLAKKGQMSVDGFMRYLSGEENGVVSPEKLDLNEDMSQPLSHYFINSSHNTYLTAGQLAGNSSVEMYRQVLLSGCRCVELDCWKGRTAEEEPVITHGFTMTTEISFKEVIEAIAECAFKTSPFPILLSFENHVDSPKQQAKMAEYCRLIFGDALLMEPLEKYPLESGVPLPSPMDLMYKILVKNKKKSHKSSEGSGKKKLSEQASNTYSDSSSVFEPSSPGAGEADTESDDDDDDDDCKKSSMDEGTAGSEAMATEEMSNLVNYIQPVKFESFEISKKRNKSFEMSSFVETKGLEQLTKSPVEFVEYNKMQLSRIYPKGTRVDSSNYMPQLFWNAGCQMVALNFQTVDLAMQINMGMYEYNGKSGYRLKPEFMRRPDKHFDPFTEGIVDGIVANTLSVKIISGQFLSDKKVGTYVEVDMFGLPVDTRRKAFKTKTSQGNAVNPVWEEEPIVFKKVVLPSLACLRIAAYEEGGKFIGHRILPVQAIRPGYHYICLRNERNQPLTLPAVFVYIEVKDYVPDTYADVIEALSNPIRYVNLMEQRAKQLAALTLEDEEEVKKEADPGETSSEAPSETRTTPAENGVNHTASLAPKPPSQAPHSQPAPGSVKAPAKTEDLIQSVLTEVEAQTIEELKQQKSFVKLQKKHYKEMKDLVKRHHKKTTELIKEHTTKYNEIQNDYLRRRAALEKSAKKDSKKKSEPSSPDHGSSAIEQDLAALDAEMTQKLIDLKDKQQQQLLNLRQEQYYSEKYQKREHIKLLIQKLTDVAEECQNNQLKKLKEICEKEKKELKKKMDKKRQEKITEAKSKDKSQMEEEKTEMIRSYIQEVVQYIKRLEEAQSKRQEKLVEKHNEIRQQILDEKPKLQTELEQEYQDKFKRLPLEILEFVQEAMKGKISEDSNHGSAPPSLASDAAKVNLKSPSSEEIERENPGREFDTPL | no binding (condition: extracts of WT hearts) | 
